A short description of the experiment: qHTS Assay for Lipid Storage Modulators in Drosophila S3 Cells.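 On cell number change: cells counted by Cell Tracker Red CMTPX staining in the red channel.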 To be noted: BODIPY lipid droplet fluorescence, 18-24 h; for cell number change: measured here: cell count max response, cells fed with added oleic acid. Summed up:
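Drosophila S3 cells got compounds at several concentrations plus oleic acid (400 uM solution). Laser-scanning cytometry with 488 nm excitation read lipid droplets at 500-530 nm and cells at 575-640 nm. Percent activity was relative to 20 uM Triacsin C.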
A general note: Quantitative high-throughput screening tests each substance at several concentrations.

Setting [1] is: measured here: lipid fluorescence (Fed channel) AC50, cells fed with added oleic acid.
Where [2] appears, read: measured here: cell number channel AC50, cells fed with added oleic acid.

SMILES strings stand for the structures. This is one part of the list. The main result of the screen is listed elsewhere. These columns were measured beside it and carry no call. The list favours compounds with an active or inconclusive main result. The note in brackets gives the kind of curve behind each potency; many fits are weak.

In the case of `COc1ccc(NC(=O)Cn2nnc(C(=O)NCCc3ccccc3)c2N)cc1`, under setting [1], the AC50 is 0.00517 µM [falling, full curve, poor fit].

Turning to `Cc1ccc(C)n1CCN1CCN(C(=O)CSc2nc3ccccc3nc2N2CCOCC2)CC1`, the cell number change is 6.35%. In addition, under setting [1], the AC50 is 0.164 µM [rising, full curve, poor fit].

`O=C(CN1C(=O)NC2(CCCC2)C1=O)Nc1ccc(F)c([N+](=O)[O-])c1`: the cell number change is 6.96%. Further, the AC50 under setting [1] is 23.1 µM [falling, single point].

On to `COCCCNC(=S)Nc1cccc(SC)c1`, for which the cell number change was determined as 21%. Moreover, the AC50 under setting [2] is 0.13 µM [rising, full curve, poor fit].

With `CCOc1cc(/C=C2\C(=O)N(c3cccc(C(F)(F)F)c3)C(=O)c3ccccc32)ccc1O`, the cell number change was -0.0847%. Further, the AC50 under setting [2] is 1.84 µM [falling, partial curve]. Moreover, the AC50 under setting [1] is 1.64 µM [falling, partial curve].

With `Cc1ccc(C)c(NS(=O)(=O)c2csc(C(N)=O)c2)c1`, the cell number change is -34.7%. In addition, the AC50 under setting [2] is 25.9 µM [falling, single point].

As for `O=C(CSc1nc(C2CC2)n(-c2ccccc2)n1)NCc1ccco1`, the cell number change was determined as 1.51%.

Consider `O=C1CCCN1CCCNC(=S)Nc1cccc2ccccc12`, for which the cell number change worked out at 5.5%.

Turning to `O=C(Nc1ccc(S(=O)(=O)N2CCOCC2)cc1)c1cc(S(=O)(=O)N2CCOCC2)ccc1Cl`, the cell number change is -4.52%. Also, the AC50 under setting [1] was 6.51 µM [rising, partial curve, poor fit].

In the case of `Cc1cc(C)n2nc(C(=O)NNC(=O)c3ccc(Cl)cc3)nc2n1`, under setting [1], the AC50 is 0.92 µM [falling, full curve].

With `O=C(N/C(=C\c1ccc([N+](=O)[O-])cc1)C(=O)N1CCCCC1)c1ccc(Br)o1`, the cell number change is -11.4%. For the same compound, the AC50 under setting [1] is 25.9 µM [falling, single point].

For `CC(=O)N[C@@H](C)c1nc2ccccc2n1CCNC(=O)[C@H]1CCCN1c1nc(CN2CCCCC2)cs1`, the cell number change stood at 17.4%. Further, the AC50 under setting [1] was 14.6 µM [falling, single point].

Regarding `CC1CCCN(C(=O)C2CCN(S(=O)(=O)c3cccc4cccnc34)CC2)C1` (stereo not drawn), the cell number change came to 10.4%. Also, under setting [1], the AC50 is 1.16 µM [falling, single point].

With `CCCCOC(=O)/C=C/c1ccc(OC(=O)OC)c(OC(=O)OC)c1`, the cell number change came out at 80.9%. In addition, the AC50 under setting [2] was 29.1 µM [rising, single point].

Regarding `Cc1cc(N)nc(C)c1C#N`, the cell number change was 14.6%. Moreover, the AC50 under setting [2] is 0.00461 µM [rising, full curve, poor fit].

As to `Cc1cccc(C)c1OCC(O)CN1CCN(c2ccccn2)CC1` (stereo not drawn), the cell number change stood at 37.9%. Under setting [1], the AC50 was 0.82 µM [rising, single point].

As for `CCOC(=O)c1c(C)nc2sc3c(=O)n(-c4ccc(C(C)=O)cc4)nnc3c2c1-c1ccc(Cl)cc1`, the half-maximal activity concentration (AC50) was 0.0517 µM [rising, full curve, poor fit] under setting [2] and 0.0058 µM [rising, full curve, poor fit] under setting [1].

`S=C(Nc1ccc(Cl)cc1)c1nc2ccccc2s1`: the cell number change is -62.8%. Further, the AC50 under setting [2] was 18.4 µM [falling, partial curve]. Further, under setting [1], the AC50 was 18.4 µM [falling, partial curve].

As for `COc1cc(/C=C2/NC(=O)N(Cc3ccccc3F)C2=O)cc(OC)c1O`, the cell number change is -14.4%. Further, under setting [1], the AC50 is 2.31 µM [falling, partial curve].

As to `COc1ccc(S(=O)(=O)Nc2ccccc2SC)cc1C`, the AC50 under setting [1] is 3.66 µM [rising, single point].

On to `O=C(CSc1nc2ccccc2o1)Nc1nc(-c2ccccc2)cs1`, for which the cell number change worked out at 4.97%. In addition, the AC50 under setting [1] is 6.51 µM [rising, single point].

As to `COc1ccc(CCC(=O)NCCc2nc3ccccc3[nH]2)cc1`, the cell number change is -35%. In addition, the AC50 under setting [2] was 29.1 µM [falling, single point]. Besides, the AC50 under setting [1] was 29.1 µM [falling, single point].

With `O=C(N/N=C/c1c(O)ccc2ccccc12)c1[nH]ncc1Br`, the cell number change was -20.1%. Moreover, the AC50 under setting [2] is 0.00461 µM [falling, full curve, poor fit]. Moreover, under setting [1], the AC50 is 5.8 µM [falling, partial curve, poor fit].

As to `CC(=O)Nc1ccc(NC(=O)CNC(=O)COc2ccccc2)cc1`, the cell number change was -27.4%. Further, the AC50 under setting [1] was 0.82 µM [falling, full curve, poor fit].

As for `CC(NC(=O)c1ccccc1F)c1nnc(SCC(=O)NC2CCCC2)n1C` (stereo not drawn), the cell number change worked out at 33.3%. Also, under setting [2], the half-maximal activity concentration (AC50) was 4.11 µM [rising, full curve].

On to `Cc1ccccc1NC(=O)c1c(C)[nH]c(=S)c(C#N)c1-c1ccc(Cl)cc1`, for which the cell number change was -24%. The concentration at half-maximal activity (AC50) under setting [1] was 20.6 µM [falling, single point].

As for `CC1CN(Cc2nnc(-c3ccccc3)o2)CC(C)O1` (stereo not drawn), the cell number change turned out to be 8.17%.

As for `C/C=C(/C)C(=O)OC1c2c(ccc3ccc(=O)oc23)OC(C)(C)C1OC(=O)/C(C)=C\C` (stereo not drawn), the cell number change is -34.1%. Besides, the AC50 under setting [2] is 11.6 µM [falling, partial curve]. For the same compound, the AC50 under setting [1] is 5.8 µM [falling, partial curve].

Regarding `Cn1ccnc1SCCNC(=O)CCc1nnc(CCCCc2ccccc2)o1`, the cell number change is -14.4%. In addition, the AC50 under setting [1] is 0.13 µM [falling, full curve, poor fit].

With `COc1cc(C(=O)NCc2nnc(SCC(=O)NC3CCCC3)o2)cc(OC)c1OC`, under setting [2], the AC50 is 6.51 µM [falling, single point].

As for `O=S(=O)(c1ccc(NC(=S)NCc2ccco2)cc1)N1CCCC1`, the cell number change amounted to 17.6%. Further, the AC50 under setting [1] is 11.6 µM [rising, partial curve, poor fit].

Regarding `Cc1nc2n(n1)C(O)c1cc([N+](=O)[O-])ccc1S2` (stereo not drawn), the cell number change is -3.7%.

On to `CCOC(=O)NC(=O)c1cn(N(C)c2ncc(C(F)(F)F)cc2Cl)c(=O)[nH]c1=O`, for which the cell number change is -20.4%. In addition, the AC50 under setting [1] was 16.4 µM [falling, single point].

As for `COc1ccc(N(CC(=O)NCC(C)C)S(=O)(=O)c2ccccc2)cc1`, the cell number change came to 1.09%. Besides, under setting [1], the AC50 is 0.184 µM [falling, full curve, poor fit].

In the case of `COc1cc(/C=C(/C#N)c2nc3ccccc3c(=O)[nH]2)ccc1O`, the cell number change turned out to be 39.6%. Further, the AC50 under setting [2] is 6.51 µM [rising, partial curve]. Further, the AC50 under setting [1] was 7.31 µM [rising, partial curve].

In the case of `Cc1ccc2nc(NCc3ccccc3)c(C#N)cc2c1`, the cell number change was -2.17%. In addition, under setting [2], the AC50 was 0.058 µM [rising, full curve, poor fit]. In addition, the AC50 under setting [1] was 0.231 µM [rising, full curve].

`Cc1ccc(/C=N/NC(=O)COc2ccc(Cl)c(C)c2)o1`: the cell number change came out at 4.17%.

Consider `CCn1c(=O)c(C(=O)CN(C)CC(=O)Nc2ccccc2Br)c(N)n(Cc2ccccc2)c1=O`, for which the cell number change is 1.2%.

For the compound `Cc1ccc(C)c(NC(=O)CS(=O)(=O)c2cccc3nsnc23)c1`, the cell number change was 55.5%. The AC50 under setting [2] is 0.326 µM [rising, full curve, poor fit]. Further, the concentration at half-maximal activity (AC50) under setting [1] was 29.1 µM [rising, partial curve, poor fit].

Take `Cc1ccc(NCc2ccc(Cl)nc2)c(NCc2ccc(Cl)nc2)c1`: the cell number change worked out at 10.8%. The AC50 under setting [1] was 0.0206 µM [rising, full curve, poor fit].

In the case of `O=C(CCc1ccccc1)NNC(=O)c1cccc(F)c1`, the cell number change amounted to 7.06%. For the same compound, the half-maximal activity concentration (AC50) under setting [2] is 6.51 µM [rising, single point]. Moreover, the AC50 under setting [1] was 3.66 µM [rising, single point].

Consider `Cc1cc(NC(=O)CSc2nnc(-c3c[nH]c4ccccc34)n2-c2ccc(Cl)cc2)no1`, for which the cell number change is -56.2%. Besides, the AC50 under setting [2] is 29.1 µM [falling, single point].

Regarding `Cn1c(=O)c2c(nc(CN3CCN(C(=O)c4ccco4)CC3)n2Cc2ccccc2F)n(C)c1=O`, the cell number change was found to be 53.3%. Further, under setting [2], the AC50 was 2.91 µM [rising, full curve]. In addition, the AC50 under setting [1] was 1.03 µM [rising, full curve].

With `COc1ccc(NC2=Nc3cccc4cccc2c34)cc1OC`, the AC50 under setting [1] is 13 µM [falling, partial curve, poor fit].

Turning to `COc1cc(C(=O)NCc2ccncc2)cc(Br)c1OCc1ccccc1`, the cell number change was -8.47%. Under setting [1], the AC50 is 13 µM [falling, single point].

Regarding `N#CCCN(C(=O)COC(=O)c1ccc(S(=O)(=O)N2CCCCCC2)cc1)c1ccccc1`, the cell number change was 7.48%. For the same compound, under setting [1], the AC50 was 20.6 µM [falling, single point].

As for `O=C(Cn1cc(C(F)(F)F)ccc1=O)N/N=C/c1cccc(Cl)c1Cl`, the cell number change is -31.2%. Also, the AC50 under setting [2] is 3.66 µM [falling, full curve, poor fit]. In addition, the AC50 under setting [1] is 8.2 µM [rising, partial curve].

Turning to `CN(Cc1cccnc1)Cc1cn[nH]c1-c1ccc(-c2ccccc2)cc1`, the cell number change is 9.84%. Besides, the AC50 under setting [1] was 2.31 µM [rising, partial curve].

Take `CC(C)=CCN1CCN(Cc2cccnc2)CC1CCO` (stereo not drawn): the cell number change is 30.9%. Also, the AC50 under setting [2] was 0.146 µM [rising, full curve, poor fit]. Further, the AC50 under setting [1] is 0.206 µM [rising, partial curve, poor fit].

As for `O=C(CCC(=O)OCCCC(F)(F)C(F)(F)F)NC1CCCCC1`, the cell number change is -4.82%. Further, the AC50 under setting [1] is 6.51 µM [falling, single point].

As to `Cc1nn(Cc2c(F)c(F)c(F)c(F)c2F)c(C)c1NC(=O)c1nn(C)cc1[N+](=O)[O-]`, the cell number change turned out to be 15.5%. Also, the AC50 under setting [2] is 0.366 µM [rising, partial curve]. In addition, the AC50 under setting [1] is 0.291 µM [rising, full curve].

Turning to `CCSc1ccc([C@@H]2[C@@H]3C(=O)N(CC)C(=O)[C@@H]3[C@]3(C(=O)OC)CCCN23)cc1`, the cell number change was -36.7%. The AC50 under setting [2] is 18.4 µM [falling, single point]. The AC50 under setting [1] is 29.1 µM [falling, single point].

For `COc1ccc(CCNC(=O)c2cc3c(=O)n4cccc(C)c4nc3n(Cc3ccncc3)c2=N)cc1`, the cell number change was -7%. Under setting [1], the AC50 is 0.116 µM [falling, full curve, poor fit].

With `Cc1sc2ncnc(NC3CCN(Cc4ccccc4)CC3)c2c1C`, under setting [1], the AC50 is 29.1 µM [rising, single point].

Consider `Cc1ccc(C(=O)Oc2coc(CSc3nnc(NC(=O)c4cccs4)s3)cc2=O)cc1`, for which the cell number change was found to be 38.5%. In addition, the AC50 under setting [2] is 2.59 µM [rising, full curve]. Moreover, the AC50 under setting [1] was 7.31 µM [rising, partial curve].

For orientation: AC50 means the concentration giving half of the maximal activity seen.

Values taken from PubChem BioAssay AID2685 (National Center for Advancing Translational Sciences (NCATS), 2010).
